According to paper PMC6192992:
These are yes or no findings as the source states them, for the method shown. Binding seen in cells or lysates may run through a third protein. Some binding calls cover weakened binding; strength is not graded here. Sequences can lack the tags named with a protein.

Biological target: T1, MYC-CCDC36 (UniProt Q8IYA8)
T1 sequence: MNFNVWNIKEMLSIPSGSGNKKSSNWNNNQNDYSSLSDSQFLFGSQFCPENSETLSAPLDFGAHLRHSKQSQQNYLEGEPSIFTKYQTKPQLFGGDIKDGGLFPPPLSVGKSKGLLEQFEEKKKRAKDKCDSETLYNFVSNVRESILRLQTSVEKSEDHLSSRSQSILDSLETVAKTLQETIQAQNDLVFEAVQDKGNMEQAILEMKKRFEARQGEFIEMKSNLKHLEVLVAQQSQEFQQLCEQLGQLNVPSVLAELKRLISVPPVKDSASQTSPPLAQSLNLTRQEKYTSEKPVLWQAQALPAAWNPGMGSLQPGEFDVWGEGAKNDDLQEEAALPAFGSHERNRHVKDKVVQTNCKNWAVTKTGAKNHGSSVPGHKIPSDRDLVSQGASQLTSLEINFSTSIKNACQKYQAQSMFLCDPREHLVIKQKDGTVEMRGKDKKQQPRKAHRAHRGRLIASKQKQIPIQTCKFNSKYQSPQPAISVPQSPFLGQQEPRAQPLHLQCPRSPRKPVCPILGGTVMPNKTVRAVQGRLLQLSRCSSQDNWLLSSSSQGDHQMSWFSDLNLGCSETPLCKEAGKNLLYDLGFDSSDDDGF
Experiment: co-IP; H1299 cells transfected with MYC-CCDC36 alone or together with HA-HORMAD1; 48 h later IR (10 Gy) or sham, harvested 1 h after; extracts immunoprecipitated with MYC antibodies; immunoblot with anti-HA and anti-MYC

binding: binds
B1: HA-HORMAD1 (protein, UniProt Q86X24 1-394)
chain: MATAQLQRTPMSALVFPNKISTEHQSLVLVKRLLAVSVSCITYLRGIFPECAYGTRYLDDLCVKILREDKNCPGSTQLVKWMLGCYDALQKKYLRMVVLAVYTNPEDPQTISECYQFKFKYTNNGPLMDFISKNQSNESSMLSTDTKKASILLIRKIYILMQNLGPLPNDVCLTMKLFYYDEVTPPDYQPPGFKDGDCEGVIFEGEPMYLNVGEVSTPFHIFKVKVTTERERMENIDSTILSPKQIKTPFQKILRDKDVEDEQEHYTSDDLDIETKMEEQEKNPASSELEEPSLVCEEDEIMRSKESPDLSISHSQVEQLVNKTSELDMSESKTRSGKVFQNKMANGNQPVKSSKENRKRSQHESGRIVLHHFDSSSQESVPKRRKFSEPKEHI
